Some of the results follow.
Test system: T1, CTL2-GFP (C. trachomatis L2/434/Bu, GFP-expressing)
T1 construct: L2/434/Bu, GFP-expressing
Design: species or system HeLa; Intracellular C. trachomatis growth in HeLa cells, bulk GFP fluorescence relative to DMSO
Conditions: bulk GFP, single well; 28.5 h, 10 µM; inhibitor

Structure (SMILES)	% of control remaining [%]
CN1CCC(N(C)C(=O)c2ccc3nccnc3c2)CC1 [CBK269096]	146.841
COC(=O)c1ccsc1NC(=O)c1cc(-c2ccc(C)o2)nc2ccc(Br)cc12 [CBK267752]	141.552
Cc1nn(CCC#N)c(C)c1[C@@H]1C=C[C@@H](NC(=O)Nc2ccccc2)C1 [CBK289173]	147.954
CC(C)Cn1c(=O)[nH]c2ncc(-c3cccc4ccccc34)nc21 [CBK064194]	136.06
Cc1nc(Nc2c(Cl)cc(S(N)(=O)=O)cc2Cl)sc1C(=O)Nc1ccccc1 [CBK265335]	109.332
O=C/C(=C\Nc1ccc(S(=O)(=O)N2CCCCC2)cc1)c1nc2ccccc2o1 [CBK262281]	106.587
Nc1nc(=O)c2cnc3c(F)cccc3c2s1 [CBK291249]	146.779
CCOC(=O)c1c(CN(C)C)n(-c2ccccc2)c2cc(Br)c(OC)cc12 [CBK115360]	82.8251
Cc1ccc(NS(=O)(=O)N(C)C)c(C)c1 [CBK005246]	97.4451
CS(=O)(=O)c1cccc(-c2cnc(NCCOc3ccccc3)c(C(=O)NCCc3ccccc3)c2)c1 [CBK076201]	168.583
CCCN(Cc1cccs1)C1Cc2cc(OC)c(OC)cc2C1 [CBK017567C]	86.7603
CC(=O)Nc1ccc(-c2cc(-c3ccc(NC(C)=O)cc3)nc(-c3ccc([N+](=O)[O-])cc3)n2)cc1 [CBK261273]	102.673
O=C(CCCc1c[nH]c2ccccc12)Nc1cccc(C(=O)O)c1 [CBK287175]	86.2912
Cn1ccc(C2CCCCCN2C(=O)c2cc(C3CC3)on2)n1 (stereo not drawn) [CBK283050]	127.475
Cc1cccnc1NC(=S)NC(=O)c1ccc([N+](=O)[O-])cc1 [CBK263931]	122.54
CC[C@H]1CN(C(=O)c2cccnc2)CC[C@H]1CC(=O)NCc1ccc2c(c1)OCO2 [CBK288771]	113.684
O=C(COc1ccccc1)Nc1nccs1 [CBK058018]	119.873
O=C(Nc1ccncc1)c1cccn(Cc2ccccc2F)c1=O [CBK287738]	56.1012
CC(Sc1ccc(Cl)cc1)C(=O)NCCN1CCOCC1 (stereo not drawn) [CBK269316]	105.848
CC1CCc2nc3ncn(CC(=O)NC4CC4)c(=O)c3cc2C1 (stereo not drawn) [CBK294401]	136.382
COc1ccc(Oc2nccc(N3CCCN(CCc4ccc5ccccc5c4)CC3)n2)cc1OC [CBK084164]	106.652

Of the compounds above, these have bromine.
Structure (SMILES)	% of control remaining [%]
COC(=O)c1ccsc1NC(=O)c1cc(-c2ccc(C)o2)nc2ccc(Br)cc12 [CBK267752]	141.552
CCOC(=O)c1c(CN(C)C)n(-c2ccccc2)c2cc(Br)c(OC)cc12 [CBK115360]	82.8251

Reference: paper PMC12040169 (PLOS Biology, 2025)
